In publication PMC4947181:
These are yes or no findings as the source states them, for the method shown. In cells and extracts the contact can be indirect. Some binding calls cover weakened binding; strength is not graded here. Where a sequence is shown, tags or fusion partners need not be part of it.

Protein sequences, listed by entry. Tags and fused reporters are not part of them.
UniProt Q9R1E0: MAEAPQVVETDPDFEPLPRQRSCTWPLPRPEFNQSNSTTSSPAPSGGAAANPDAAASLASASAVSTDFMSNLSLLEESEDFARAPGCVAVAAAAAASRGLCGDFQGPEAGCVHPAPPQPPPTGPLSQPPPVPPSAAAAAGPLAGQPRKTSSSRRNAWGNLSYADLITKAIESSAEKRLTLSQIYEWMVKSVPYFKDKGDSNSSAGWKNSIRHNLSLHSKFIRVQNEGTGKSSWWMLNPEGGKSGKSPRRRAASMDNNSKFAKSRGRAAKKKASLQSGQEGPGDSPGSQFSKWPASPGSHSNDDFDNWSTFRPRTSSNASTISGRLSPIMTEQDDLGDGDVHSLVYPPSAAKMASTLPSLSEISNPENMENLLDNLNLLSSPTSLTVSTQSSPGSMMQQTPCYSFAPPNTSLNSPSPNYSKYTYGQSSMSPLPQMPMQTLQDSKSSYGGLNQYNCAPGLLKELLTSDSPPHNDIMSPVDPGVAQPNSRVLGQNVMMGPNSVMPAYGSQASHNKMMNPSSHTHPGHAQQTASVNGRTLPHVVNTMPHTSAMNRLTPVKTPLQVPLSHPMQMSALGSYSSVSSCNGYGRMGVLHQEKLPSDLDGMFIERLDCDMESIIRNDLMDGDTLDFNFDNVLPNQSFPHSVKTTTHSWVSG

Molecular target: FOXO1-MYC (UniProt Q9R1E0)
Test: co-IP; HEK293T cells transfected with tagged expression vectors (for MDM2 with nFOXO1: GFP-CRY1 co-expressed); total cell lysates immunoprecipitated with an anti-MYC antibody, protein A sepharose, 4 °C; western blotting

B1: GFP-CRY1 (protein, UniProt P97784 1-606)
chain: MGVNAVHWFRKGLRLHDNPALKECIQGADTIRCVYILDPWFAGSSNVGINRWRFLLQCLEDLDANLRKLNSRLFVIRGQPADVFPRLFKEWNITKLSIEYDSEPFGKERDAAIKKLATEAGVEVIVRISHTLYDLDKIIELNGGQPPLTYKRFQTLVSKMEPLEMPADTITSDVIGKCMTPLSDDHDEKYGVPSLEELGFDTDGLSSAVWPGGETEALTRLERHLERKAWVANFERPRMNANSLLASPTGLSPYLRFGCLSCRLFYFKLTDLYKKVKKNSSPPLSLYGQLLWREFFYTAATNNPRFDKMEGNPICVQIPWDKNPEALAKWAEGRTGFPWIDAIMTQLRQEGWIHHLARHAVACFLTRGDLWISWEEGMKVFEELLLDADWSINAGSWMWLSCSSFFQQFFHCYCPVGFGRRTDPNGDYIRRYLPVLRGFPAKYIYDPWNAPEGIQKVAKCLIGVNYPKPMVNHAEASRLNIERMKQIYQQLSRYRGLGLLASVPSNSNGNGGLMGYAPGENVPSCSSSGNGGLMGYAPGENVPSCSGGNCSQGSGILHYAHGDSQQTHSLKQGRSSAGTGLSSGKRPSQEEDAQSVGPKVQRQSSN
In the case of B1, the binding is reported as “binds”.
